PubChem BioAssay AID493014 (National Center for Advancing Translational Sciences (NCATS), 2011)
Some of the results follow. These are further read-outs of the screen, such as a control signal, another cell line or another target. No call is given for them. Most of these compounds were active or inconclusive in the main read-out, so they are no random draw. Words in brackets tell the shape of the fitted curve; partial curves, single points and poor fits give uncertain potencies.

Assay: qHTS Assay to Find Inhibitors of Chronic Active B-Cell Receptor Signaling
Conditions: ABC-DLBCL IkBa-CBG/CBR reporter, luminescence ratio (green luciferase fused to IkBa over red control in TMD8 lymphoma cells), 4 h
Summary of the method: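 Cell line TMD8 (human ABC DLBCL), stably expressing tet-inducible CBG68-IkBa fusion and CBR; IMDM/0.5% FBS; cpd up to 46 uM; dox induction, 4 h, 37C/5% CO2; dual luminescence; green/red ratio; MG132 control.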

[1] = measured here: CBR red luminescence, cell number
[2] = measured here: IkBa-CBG green luminescence

Cn1cnc([N+](=O)[O-])c1SCC(O)CN1CCCCC1 (stereo not given)
AC50 [1]: 14.1 µM [rising, single point]

CC(=O)c1cccc(CN2CCN(CCc3ccccc3)C(CCO)C2)c1 (stereo not given)
AC50 [1]: 15.8 µM [falling, partial curve]

COc1ccc(NC(=O)COC(=O)c2cc(C)oc2C)cc1OC
AC50 [1]: 1.84 µM [rising, partial curve, poor fit]

O=S(=O)(Nc1cccc(-c2ccc(N3CCCC3)nn2)c1)c1ccc(F)cc1F
AC50 [1]: 15.8 µM [rising, single point]

Cc1nn(Cc2ccccc2)c(C)c1C(=O)NCC(c1cccs1)N1CCOCC1 (stereo not given)
AC50 [1]: 14.6 µM [rising, partial curve, poor fit]

COc1ccc(C(=O)Nc2cc(OC)cc(OC)c2)cc1
AC50 [1]: 2.24 µM [falling, full curve]

CN(C)c1ccc(CC(=O)c2nc3ccccc3s2)cc1
AC50 [1]: 8.2 µM [rising, partial curve]
AC50 [2]: 23.1 µM [falling, partial curve, poor fit]

COc1ccc(S(=O)(=O)Nc2cccc(-n3cnnn3)c2)cc1OC
AC50 [1]: 35.5 µM [falling, single point]

COc1ccccc1N1CCN(Cc2ccc(Br)o2)CC1
AC50 [1]: 6.51 µM [rising, single point]

COc1ccc(C(=O)c2oc3ccccc3c2NC(C)=O)cc1
AC50 [1]: 29.1 µM [rising, single point]

COC(=O)c1ccc(COC(=O)CCC(=O)c2cccs2)cc1
AC50 [1]: 18.4 µM [falling, partial curve]

COc1ccccc1/C=N/NC(=O)c1cccc(NC(=O)c2ccccc2C)c1
AC50 [1]: 11.2 µM [falling, partial curve, poor fit]

O=C(/C=C/Nc1nccs1)C(F)(F)Cl
AC50 [1]: 11.2 µM [rising, partial curve, poor fit]

CCC(C)n1[nH]c(=O)c2c(C)cc(C)nc21 (stereo not given)
AC50 [1]: 29.1 µM [rising, single point]

CCOC(=O)c1c(C)n(C)c2ccc(OCC(O)CN(CC)CC)cc12 (stereo not given)
AC50 [1]: 20.6 µM [rising, single point]

COc1ccc(CC(=O)Nc2cccc(-c3ccc4nnc(C)n4n3)c2)cc1
AC50 [1]: 35.5 µM [rising, single point]

CC(=O)N1CCc2c(sc(NC(=O)C3CCCN3S(=O)(=O)c3cccs3)c2C(N)=O)C1 (stereo not given)
AC50 [1]: 2.31 µM [falling, full curve, poor fit]

CC(CN1CCOCC1)C(=O)O (stereo not given)
AC50 [1]: 20.6 µM [rising, partial curve, poor fit]

CC1=CSC2=NC(=O)/C(=C\c3cccn3-c3ccc([N+](=O)[O-])cc3)C(=N)N12
AC50 [1]: 20.6 µM [rising, partial curve]

Cn1c(N)c(S(=O)(=O)N2CCN(Cc3ccccc3)CC2)c(=O)n(C)c1=O
AC50 [1]: 35.5 µM [rising, single point]

CN(C)S(=O)(=O)c1cccc(NC(=S)N2CCc3ccccc32)c1
AC50 [1]: 25.1 µM [falling, single point]

Cc1nc(N2CCCCC2)sc1C(=O)c1ccc(Cl)c([N+](=O)[O-])c1
AC50 [1]: 3.55 µM [falling, full curve, poor fit]

COc1ccc(NC(=O)C2CCCN(S(=O)(=O)c3ccc4c(c3)CCCN4C(C)=O)C2)cc1 (stereo not given)
AC50 [1]: 11.2 µM [falling, partial curve, poor fit]

O=C(Cn1c(=O)n(-c2ccccc2)c(=O)c2oc3ccccc3c21)Nc1ccccc1
AC50 [1]: 23.1 µM [rising, partial curve, poor fit]

CC(=O)O[C@H]1CSC[C@H]1NC(=O)c1ccccc1
AC50 [1]: 4.11 µM [rising, partial curve, poor fit]

CCOC(=O)[C@H]1[C@H]2COc3cc(OC)ccc3[C@@H]2N2C(=O)N(c3cccc(F)c3)C(=O)[C@@]12C
AC50 [1]: 29.1 µM [rising, partial curve, poor fit]

O=Nc1c(O)n(Cc2cccc(C(F)(F)F)c2)c2ccccc12
AC50 [1]: 2.51 µM [rising, partial curve, poor fit]

COc1cc(C(C)=O)ccc1OCC(=O)Nc1ccccc1N1CCCC1
AC50 [1]: 2 µM [falling, full curve, poor fit]

CCCCN(C)CCCNC(=O)c1cc(Nc2ccc(OC)c(OC)c2)nc2ccccc12
AC50 [1]: 12.6 µM [falling, single point]

Cc1cc(C(=O)COC(=O)c2ccc(O)cc2O)c(C)n1-c1ccccc1
AC50 [1]: 16.4 µM [falling, single point]

Cc1ccc(Nc2c([N+](=O)[O-])ccc3nonc23)cc1C
AC50 [1]: 25.1 µM [rising, single point]

COC(=O)[C@@H]1C[C@]2(OC(=O)c3ccccc3)C=CC(=O)C[C@@H]2N1C(=O)OCc1ccccc1
AC50 [1]: 11.6 µM [falling, single point]

O=C(CSc1nc2ccccc2c(=O)[nH]1)c1cccs1
AC50 [1]: 10 µM [falling, partial curve]

CN(C)C(=O)c1cc(C(=O)c2ccc(C(F)(F)F)cc2)c[nH]1
AC50 [1]: 14.1 µM [rising, partial curve, poor fit]

CCCc1ccc(-c2cc(NC(=O)CSc3n[nH]c(N)n3)n(-c3ccccc3)n2)cc1
AC50 [1]: 0.82 µM [rising, partial curve]

CCOC(=O)c1oc2ccc(S(=O)(=O)Nc3ccc4c(c3)n(C)c(=O)n4C)cc2c1C
AC50 [1]: 16.4 µM [rising, single point]

CCOc1ncccc1C(=O)OCC(=O)Nc1nnc(-c2ccccc2)o1
AC50 [1]: 20.6 µM [falling, partial curve]

CCN1CCN(C(=O)C2CCN(c3nnc(-n4c(C)ccc4C)s3)CC2)CC1
AC50 [1]: 22.4 µM [falling, single point]

CCOc1ccc(/C=C/C(=O)c2ccccc2)cc1
AC50 [1]: 35.5 µM [falling, single point]

O=C1/C(=C\c2ccc(O)cc2)SC(=S)N1/N=C/c1ccc(O)cc1
AC50 [1]: 2.82 µM [falling, full curve, poor fit]

COc1ccc(CNC(=O)CN(c2ccc(OC)cc2)S(=O)(=O)c2c(C)nn(C)c2C)cc1
AC50 [1]: 20.6 µM [rising, partial curve, poor fit]

CCc1ccc(Nc2nnc(SCC(=O)Nc3sccc3C(N)=O)s2)cc1
AC50 [1]: 29.1 µM [falling, single point]

CN1CCSc2ccc(C(=O)NCc3ccccc3F)cc21
AC50 [1]: 22.4 µM [falling, partial curve, poor fit]

CN(CC(=O)N1CCc2ccccc21)S(=O)(=O)c1ccc(Cl)cc1
AC50 [1]: 5.8 µM [rising, single point]

CCCCOc1ccc(-c2nnc(N)s2)cc1
AC50 [1]: 13 µM [rising, partial curve]

Cc1cccc(C)c1NC(=S)NC(C)(C)CO
AC50 [1]: 35.5 µM [rising, single point]

O=C(N/N=C/c1ccco1)c1cc(-c2ccccc2)n[nH]1
AC50 [1]: 10.3 µM [falling, partial curve, poor fit]

O=C(c1oc2ccccc2c1CSCc1ccccc1)N1CCN(c2ncccn2)CC1
AC50 [1]: 15.8 µM [falling, partial curve, poor fit]

N=c1oc2ccccc2cc1-c1nc(-c2ccc(Cl)cc2)cs1
AC50 [1]: 14.6 µM [falling, single point]

O=c1ccc2ccc(OCCOc3cccc(Cl)c3)cc2o1
AC50 [1]: 1.41 µM [rising, partial curve, poor fit]

COc1ccccc1-c1ccc(SCc2ccc([N+](=O)[O-])cc2)nn1
AC50 [1]: 22.4 µM [falling, single point]

O=C(CCNC(=O)c1ccc([N+](=O)[O-])cc1)NC1CCCCCC1
AC50 [1]: 3.66 µM [falling, full curve]

CC(C)c1ccc(/C=C/c2[nH]c(=O)[nH]c(=O)c2[N+](=O)[O-])cc1
AC50 [1]: 3.55 µM [rising, single point]

CNC(=O)c1ccsc1NC(=O)CCS(=O)(=O)c1ccc(F)cc1
AC50 [1]: 32.6 µM [falling, single point]

CC(C)(C)NC(=O)N1CCN(c2nc3ccc(Cl)cc3s2)CC1
AC50 [1]: 12.6 µM [rising, partial curve, poor fit]

Cc1cc(C)cc(Oc2ncnc3c2ncn3Cc2c(Cl)cccc2Cl)c1
AC50 [1]: 29.1 µM [falling, single point]

CCCCC(c1nnnn1C1CCCC1)N1CCN(C(=O)c2ccco2)CC1 (stereo not given)
AC50 [1]: 20.6 µM [rising, single point]

COCCCN(C(=O)c1ccco1)c1nc(-c2cc(OC)ccc2OC)cs1
AC50 [1]: 0.398 µM [rising, full curve]

COC(=O)c1c(C)oc2ccc(NS(=O)(=O)c3cccs3)cc12
AC50 [1]: 2.59 µM [falling, partial curve]

Cc1cccn2c(=O)c3cc(C#N)c(=N)n(CCN4CCOCC4)c3nc12
AC50 [1]: 4.11 µM [falling, full curve, poor fit]

CC(C)c1cccc(OCC(=O)Nc2ccc(S(=O)(=O)Nc3ccccn3)cc2)c1
AC50 [1]: 0.501 µM [rising, full curve, poor fit]

Cc1nn2c(nc1=O)NNC2(C)C(C)(C)C (stereo not given)
AC50 [1]: 20 µM [falling, partial curve, poor fit]
AC50 [2]: 35.5 µM [falling, single point]

C[C@]12C=CC(=O)C=C1CC[C@@H]1C2[C@@H](O)C[C@@]2(C)C1CC[C@]2(O)C(=O)COC(=O)CCC(=O)O (stereo not given in full)
AC50 [1]: 0.251 µM [rising, full curve, poor fit]
